Settings in all cases: stereoisomer not certain
One assay concerns T1, OR2C3.
T1 sequence (whole entry): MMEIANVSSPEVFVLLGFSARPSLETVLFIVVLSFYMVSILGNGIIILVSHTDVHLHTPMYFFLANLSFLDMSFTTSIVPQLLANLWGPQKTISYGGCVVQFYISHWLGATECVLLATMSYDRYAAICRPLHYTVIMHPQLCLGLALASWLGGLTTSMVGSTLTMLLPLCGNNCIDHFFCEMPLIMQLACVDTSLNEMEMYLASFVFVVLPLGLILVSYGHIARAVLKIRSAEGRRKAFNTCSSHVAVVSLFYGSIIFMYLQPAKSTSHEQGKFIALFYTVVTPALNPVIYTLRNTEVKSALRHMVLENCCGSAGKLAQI
The method, boiled down: (§1)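 Values were gathered from published papers (main text and supplementary material), with extra details requested from the original authors when needed, and checked for typos and inconsistencies. Each receptor–molecule pair is called responsive (active) if the original authors judged the measured signal statistically different from baseline, and non-responsive (inactive) otherwise. Assay methods varied by source, often transient mammalian cell-line luciferase assays. Recorded details include cell line, G-protein, co-transfected protein and tags.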

A further assay addresses T2, OR2D2 (Homo sapiens) (UniProt Q9H210).
T2 sequence (whole entry): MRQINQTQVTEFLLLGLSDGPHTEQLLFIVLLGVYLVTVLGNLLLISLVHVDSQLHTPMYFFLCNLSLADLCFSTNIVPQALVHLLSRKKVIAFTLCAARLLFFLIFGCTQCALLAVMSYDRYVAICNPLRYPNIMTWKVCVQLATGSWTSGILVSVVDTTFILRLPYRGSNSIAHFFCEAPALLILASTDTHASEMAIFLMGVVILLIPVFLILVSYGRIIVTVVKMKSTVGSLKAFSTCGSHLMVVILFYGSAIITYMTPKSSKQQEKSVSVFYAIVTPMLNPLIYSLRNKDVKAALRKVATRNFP
The essentials: as §1

Another assay has as its system T3, OR2D3.
T3 sequence (whole entry): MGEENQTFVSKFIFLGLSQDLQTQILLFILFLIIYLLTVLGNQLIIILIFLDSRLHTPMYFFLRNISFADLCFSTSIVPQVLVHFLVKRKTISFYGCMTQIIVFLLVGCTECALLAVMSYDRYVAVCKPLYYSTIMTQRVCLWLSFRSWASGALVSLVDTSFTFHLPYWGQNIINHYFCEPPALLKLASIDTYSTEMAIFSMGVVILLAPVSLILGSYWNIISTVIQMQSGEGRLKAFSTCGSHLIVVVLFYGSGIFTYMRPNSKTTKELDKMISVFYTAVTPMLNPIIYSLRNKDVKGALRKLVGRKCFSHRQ
The essentials: as §1

The target of a further assay is T4, OR2F1 (Homo sapiens) (UniProt Q13607).
T4 sequence (whole entry): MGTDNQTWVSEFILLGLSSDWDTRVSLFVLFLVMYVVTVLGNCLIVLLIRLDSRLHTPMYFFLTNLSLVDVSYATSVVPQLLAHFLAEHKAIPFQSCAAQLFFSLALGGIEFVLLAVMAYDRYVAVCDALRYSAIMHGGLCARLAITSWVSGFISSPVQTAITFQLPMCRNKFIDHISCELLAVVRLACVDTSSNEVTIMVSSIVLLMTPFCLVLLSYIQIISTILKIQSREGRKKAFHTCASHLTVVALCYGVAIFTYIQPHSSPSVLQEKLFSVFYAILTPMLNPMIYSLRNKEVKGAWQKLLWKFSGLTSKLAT
The essentials:
as §1

For the next assay, the system named is T5, OR2F2.
T5 sequence (whole entry): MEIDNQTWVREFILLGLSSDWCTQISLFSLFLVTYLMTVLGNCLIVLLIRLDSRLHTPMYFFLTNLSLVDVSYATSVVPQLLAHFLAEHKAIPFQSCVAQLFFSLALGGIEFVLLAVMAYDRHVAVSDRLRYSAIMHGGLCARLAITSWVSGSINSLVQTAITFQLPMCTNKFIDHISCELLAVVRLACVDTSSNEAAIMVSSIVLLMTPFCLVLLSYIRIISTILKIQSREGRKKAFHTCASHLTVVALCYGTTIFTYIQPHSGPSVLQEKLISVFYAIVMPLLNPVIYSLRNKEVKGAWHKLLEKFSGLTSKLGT
The method, boiled down: as §1

The test system of assay [1] is T6, OR2G2.
T6 sequence (whole entry): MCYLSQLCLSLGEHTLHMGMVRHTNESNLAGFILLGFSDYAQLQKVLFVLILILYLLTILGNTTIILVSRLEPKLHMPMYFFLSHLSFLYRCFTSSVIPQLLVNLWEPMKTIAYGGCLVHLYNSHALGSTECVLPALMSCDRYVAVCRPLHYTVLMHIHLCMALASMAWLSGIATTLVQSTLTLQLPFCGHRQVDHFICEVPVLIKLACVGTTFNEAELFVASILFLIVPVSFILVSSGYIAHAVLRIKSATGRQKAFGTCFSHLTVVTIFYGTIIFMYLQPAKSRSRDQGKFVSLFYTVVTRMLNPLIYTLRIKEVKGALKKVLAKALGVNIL
The method, boiled down:
as §1

For assay [2], the system named is T7, OR2G2.
T7 sequence (whole entry): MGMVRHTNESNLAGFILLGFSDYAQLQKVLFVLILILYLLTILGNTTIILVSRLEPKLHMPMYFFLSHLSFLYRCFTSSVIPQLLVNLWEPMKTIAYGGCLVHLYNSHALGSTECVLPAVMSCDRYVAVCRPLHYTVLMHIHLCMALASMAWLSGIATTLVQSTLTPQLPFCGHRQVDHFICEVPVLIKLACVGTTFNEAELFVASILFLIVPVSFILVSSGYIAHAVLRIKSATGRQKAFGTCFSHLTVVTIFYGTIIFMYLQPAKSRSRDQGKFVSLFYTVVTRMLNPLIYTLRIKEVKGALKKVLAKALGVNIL
The method, boiled down: as §1
This is another data set of the same source.

The next assay has as its target T8, OR2G3 (Homo sapiens) (UniProt Q8NGZ4).
T8 sequence (whole entry): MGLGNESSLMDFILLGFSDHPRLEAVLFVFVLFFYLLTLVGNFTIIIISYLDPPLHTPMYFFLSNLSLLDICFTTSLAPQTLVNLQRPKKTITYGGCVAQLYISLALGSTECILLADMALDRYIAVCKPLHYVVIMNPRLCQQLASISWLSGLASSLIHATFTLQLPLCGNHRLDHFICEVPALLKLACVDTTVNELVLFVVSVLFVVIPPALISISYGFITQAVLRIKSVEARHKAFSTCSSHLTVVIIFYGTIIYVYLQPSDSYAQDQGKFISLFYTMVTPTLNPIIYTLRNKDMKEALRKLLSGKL
The essentials:
as §1

In the next assay the test system is T9, OR2G3.
T9 sequence (whole entry): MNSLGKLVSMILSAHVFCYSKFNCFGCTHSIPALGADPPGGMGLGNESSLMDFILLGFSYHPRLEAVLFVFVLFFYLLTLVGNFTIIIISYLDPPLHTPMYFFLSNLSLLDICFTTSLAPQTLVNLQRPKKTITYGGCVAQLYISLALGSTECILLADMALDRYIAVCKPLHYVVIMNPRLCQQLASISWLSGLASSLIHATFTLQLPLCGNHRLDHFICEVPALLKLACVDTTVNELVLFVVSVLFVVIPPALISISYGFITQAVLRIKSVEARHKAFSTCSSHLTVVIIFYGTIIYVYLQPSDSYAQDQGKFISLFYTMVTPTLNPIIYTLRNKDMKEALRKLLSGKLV
The essentials:
as §1

The next assay has as its target T10, OR2G6 (Homo sapiens) (UniProt Q5TZ20).
T10 sequence (whole entry): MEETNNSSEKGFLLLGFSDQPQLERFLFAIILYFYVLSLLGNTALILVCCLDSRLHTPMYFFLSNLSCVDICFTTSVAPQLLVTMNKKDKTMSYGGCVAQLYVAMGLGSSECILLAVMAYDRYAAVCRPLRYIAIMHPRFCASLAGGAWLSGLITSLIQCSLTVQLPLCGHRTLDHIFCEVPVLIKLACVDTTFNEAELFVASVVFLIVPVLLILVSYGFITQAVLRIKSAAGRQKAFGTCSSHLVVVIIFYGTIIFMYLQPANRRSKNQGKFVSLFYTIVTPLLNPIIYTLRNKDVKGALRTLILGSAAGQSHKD
The essentials: as §1

The target of a further assay is T11, OR2H1 (Homo sapiens) (UniProt Q9GZK4).
T11 sequence (whole entry): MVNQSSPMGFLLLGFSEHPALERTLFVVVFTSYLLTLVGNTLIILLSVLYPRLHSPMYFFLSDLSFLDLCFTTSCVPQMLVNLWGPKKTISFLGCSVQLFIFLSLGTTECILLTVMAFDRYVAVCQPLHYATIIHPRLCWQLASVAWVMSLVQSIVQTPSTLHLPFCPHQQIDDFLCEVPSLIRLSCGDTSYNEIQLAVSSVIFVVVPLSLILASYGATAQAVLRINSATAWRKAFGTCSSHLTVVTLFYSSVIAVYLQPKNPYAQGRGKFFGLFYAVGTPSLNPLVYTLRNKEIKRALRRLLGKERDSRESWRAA
The method, boiled down:
as §1

The next assay has as its system T12, OR2H2.
T12 sequence (whole entry): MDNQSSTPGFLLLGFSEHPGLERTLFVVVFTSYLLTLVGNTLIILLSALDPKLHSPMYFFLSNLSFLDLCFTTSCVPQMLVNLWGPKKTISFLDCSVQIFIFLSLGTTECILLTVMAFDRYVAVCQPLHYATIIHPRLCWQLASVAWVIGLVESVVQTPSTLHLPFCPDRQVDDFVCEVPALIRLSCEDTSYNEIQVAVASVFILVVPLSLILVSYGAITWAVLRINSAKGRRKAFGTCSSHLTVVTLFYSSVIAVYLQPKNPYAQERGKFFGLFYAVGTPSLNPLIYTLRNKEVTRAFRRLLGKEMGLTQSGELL
The method, boiled down: as §1

The target of the next assay is T13, OR2H2 (Homo sapiens) (UniProt O95918).
T13 sequence (whole entry): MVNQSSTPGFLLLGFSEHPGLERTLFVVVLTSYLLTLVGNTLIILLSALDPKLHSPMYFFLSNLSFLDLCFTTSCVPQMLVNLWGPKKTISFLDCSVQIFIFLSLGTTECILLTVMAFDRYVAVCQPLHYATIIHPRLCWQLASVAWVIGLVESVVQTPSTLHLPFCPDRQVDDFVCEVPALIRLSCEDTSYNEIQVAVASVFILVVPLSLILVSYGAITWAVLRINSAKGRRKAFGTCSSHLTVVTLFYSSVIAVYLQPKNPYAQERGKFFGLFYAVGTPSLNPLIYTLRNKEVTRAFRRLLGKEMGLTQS
The method, boiled down:
as §1

The entries are a selection whose mix differs from that of the whole data set. The calls were merged from several studies; some rest on single wells. The list shows a part of the results.

With `CC=Cc1ccc(O)c(OC)c1`, the “odorant receptor agonist call” value in the assay on OR2C3 and in the assay with OR2D2 (Homo sapiens) was “active” in each case. Moreover, the “odorant receptor agonist call” value with OR2D3, in the assay with OR2F1 (Homo sapiens), in the assay on OR2F2, in the assay on OR2G2 [1], in the assay on OR2G2 [2] and in the assay with OR2G3 (Homo sapiens) was “inactive” throughout. Further, the “odorant receptor agonist call” value with OR2G3, with OR2G6 (Homo sapiens), in the assay with OR2H1 (Homo sapiens) and with OR2H2 was “inactive” in each case.

As to `CCCCCCCCOC(C)=O`, the “odorant receptor agonist call” value in the assay with OR2C3, with OR2D2 (Homo sapiens), in the assay with OR2D3, with OR2F1 (Homo sapiens), in the assay on OR2F2 and in the assay with OR2G2 [1] was “inactive” in each case. The “odorant receptor agonist call” value in the assay on OR2G2 [2], with OR2G3 (Homo sapiens), with OR2G3, with OR2G6 (Homo sapiens), with OR2H1 (Homo sapiens) and in the assay on OR2H2 was “inactive” each time.

As for `CC(C)CCC(=O)O`, the “odorant receptor agonist call” value in the assay with OR2C3, with OR2D2 (Homo sapiens), in the assay with OR2D3, in the assay with OR2F1 (Homo sapiens), with OR2F2 and with OR2G2 [1] was “inactive” each time. The “odorant receptor agonist call” value in the assay on OR2G2 [2], with OR2G3 (Homo sapiens), with OR2G3, with OR2G6 (Homo sapiens), with OR2H1 (Homo sapiens) and in the assay on OR2H2 was “inactive” throughout.

`CC(C)C(=O)O`: the “odorant receptor agonist call” value in the assay on OR2C3, with OR2D2 (Homo sapiens), in the assay on OR2D3, in the assay with OR2F1 (Homo sapiens), in the assay with OR2F2 and in the assay on OR2G2 [1] was “inactive” throughout. Besides, the “odorant receptor agonist call” value with OR2G2 [2], with OR2G3 (Homo sapiens), with OR2G3, with OR2G6 (Homo sapiens), with OR2H1 (Homo sapiens) and with OR2H2 was “inactive” throughout.

With `CCCCCCC=O`, the “odorant receptor agonist call” value in the assay with OR2H2 (Homo sapiens) was “active”.

As for `CC(=O)OCC=C(C)CCC=C(C)C`, the “odorant receptor agonist call” value in the assay with OR2C3 and with OR2H2 was “active” in each case. In addition, the “odorant receptor agonist call” value in the assay with OR2D2 (Homo sapiens), with OR2D3, in the assay with OR2F1 (Homo sapiens), with OR2F2, in the assay on OR2G2 [1] and with OR2G2 [2] was “inactive” throughout. Further, the “odorant receptor agonist call” value with OR2G3 (Homo sapiens), in the assay on OR2G3, with OR2G6 (Homo sapiens) and with OR2H1 (Homo sapiens) was “inactive” each time.

Consider `CC1=NC(C)SC1C` (stereo unspecified), for which the “odorant receptor agonist call” value in the assay on OR2D3, in the assay with OR2F1 (Homo sapiens), with OR2F2, with OR2G2 [1], in the assay on OR2G2 [2] and with OR2G3 (Homo sapiens) was “inactive” throughout. The “odorant receptor agonist call” value with OR2G6 (Homo sapiens), with OR2H1 (Homo sapiens) and with OR2H2 was “inactive” each time. For the same compound, the “odorant receptor agonist call” value with OR2G3 is “active”.

Source of the values: the M2OR odorant receptor database.
